Reference: the supplement of paper PMC10849652
This is one part of the list. Residues, ends and D or L forms follow the SMILES beside them. *: point of attachment. Cbz = O=C(OCc1ccccc1)*

Protein sequences, listed by entry. Tags and fused reporters are not part of them. Lines headed by an entry give the natural chain unless they say otherwise; changes in a name come on top.
UniProt Q9H813: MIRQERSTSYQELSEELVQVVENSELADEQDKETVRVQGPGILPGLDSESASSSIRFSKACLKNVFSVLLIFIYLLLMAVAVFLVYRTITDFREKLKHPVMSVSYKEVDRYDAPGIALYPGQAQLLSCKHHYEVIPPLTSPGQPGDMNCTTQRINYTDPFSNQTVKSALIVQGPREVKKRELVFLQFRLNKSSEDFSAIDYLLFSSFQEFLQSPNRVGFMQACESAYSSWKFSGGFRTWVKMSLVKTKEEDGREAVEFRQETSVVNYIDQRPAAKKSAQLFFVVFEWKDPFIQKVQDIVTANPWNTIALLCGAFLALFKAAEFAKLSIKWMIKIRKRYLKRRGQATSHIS
UniProt Q86SE9: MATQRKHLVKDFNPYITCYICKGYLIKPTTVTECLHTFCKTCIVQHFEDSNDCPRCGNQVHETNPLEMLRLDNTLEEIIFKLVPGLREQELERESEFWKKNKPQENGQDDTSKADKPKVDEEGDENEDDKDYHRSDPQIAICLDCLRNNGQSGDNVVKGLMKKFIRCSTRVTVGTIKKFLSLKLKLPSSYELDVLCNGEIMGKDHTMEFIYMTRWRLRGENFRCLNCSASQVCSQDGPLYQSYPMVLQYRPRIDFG
UniProt P09874, whole entry, looked up: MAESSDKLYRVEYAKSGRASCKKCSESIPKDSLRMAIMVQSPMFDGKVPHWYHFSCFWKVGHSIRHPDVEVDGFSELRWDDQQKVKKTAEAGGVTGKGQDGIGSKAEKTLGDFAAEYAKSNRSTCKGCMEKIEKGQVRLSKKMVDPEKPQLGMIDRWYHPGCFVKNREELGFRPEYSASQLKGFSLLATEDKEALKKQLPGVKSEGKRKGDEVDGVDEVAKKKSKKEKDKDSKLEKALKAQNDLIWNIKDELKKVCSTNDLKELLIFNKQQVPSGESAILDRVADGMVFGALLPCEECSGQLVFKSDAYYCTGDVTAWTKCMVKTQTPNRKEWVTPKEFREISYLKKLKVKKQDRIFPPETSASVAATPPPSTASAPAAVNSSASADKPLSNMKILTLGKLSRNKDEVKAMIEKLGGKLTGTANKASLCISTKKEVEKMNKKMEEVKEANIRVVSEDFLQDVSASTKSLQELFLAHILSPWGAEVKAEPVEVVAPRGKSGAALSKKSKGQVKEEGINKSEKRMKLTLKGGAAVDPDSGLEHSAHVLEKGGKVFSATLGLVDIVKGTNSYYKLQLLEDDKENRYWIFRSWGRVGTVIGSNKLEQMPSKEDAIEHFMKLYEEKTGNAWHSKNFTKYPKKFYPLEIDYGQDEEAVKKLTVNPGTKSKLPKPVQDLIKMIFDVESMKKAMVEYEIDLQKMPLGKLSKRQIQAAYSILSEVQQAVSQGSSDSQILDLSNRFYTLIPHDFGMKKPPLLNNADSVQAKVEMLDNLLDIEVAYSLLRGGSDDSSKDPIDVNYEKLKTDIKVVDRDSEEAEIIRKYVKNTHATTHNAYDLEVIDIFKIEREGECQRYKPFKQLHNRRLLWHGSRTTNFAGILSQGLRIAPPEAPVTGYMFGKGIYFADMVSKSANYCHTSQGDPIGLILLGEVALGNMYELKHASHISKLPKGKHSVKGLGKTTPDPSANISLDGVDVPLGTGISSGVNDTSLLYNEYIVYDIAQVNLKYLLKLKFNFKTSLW
UniProt Q8N5Y8: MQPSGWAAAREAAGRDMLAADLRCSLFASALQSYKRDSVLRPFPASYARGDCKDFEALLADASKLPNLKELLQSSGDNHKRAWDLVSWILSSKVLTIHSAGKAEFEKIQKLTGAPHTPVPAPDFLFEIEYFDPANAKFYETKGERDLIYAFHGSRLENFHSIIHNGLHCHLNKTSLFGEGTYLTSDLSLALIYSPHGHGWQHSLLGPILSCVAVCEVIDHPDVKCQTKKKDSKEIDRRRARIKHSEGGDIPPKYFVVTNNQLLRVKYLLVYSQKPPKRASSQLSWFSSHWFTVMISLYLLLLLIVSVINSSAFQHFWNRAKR
UniProt Q7Z2X7: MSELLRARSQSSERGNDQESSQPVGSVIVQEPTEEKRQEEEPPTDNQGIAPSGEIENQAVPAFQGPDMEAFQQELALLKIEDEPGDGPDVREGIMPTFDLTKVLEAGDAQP
UniProt Q9H300: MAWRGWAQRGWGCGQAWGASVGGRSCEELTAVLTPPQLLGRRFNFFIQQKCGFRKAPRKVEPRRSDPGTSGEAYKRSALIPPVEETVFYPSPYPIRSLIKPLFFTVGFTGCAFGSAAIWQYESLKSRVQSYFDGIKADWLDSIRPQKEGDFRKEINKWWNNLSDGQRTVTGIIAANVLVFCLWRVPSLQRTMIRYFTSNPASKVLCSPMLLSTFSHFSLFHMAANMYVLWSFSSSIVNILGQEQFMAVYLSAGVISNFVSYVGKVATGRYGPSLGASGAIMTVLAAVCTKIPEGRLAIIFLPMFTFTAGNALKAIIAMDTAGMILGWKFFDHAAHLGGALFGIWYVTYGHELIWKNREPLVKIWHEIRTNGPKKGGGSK

What was measured:
Assay in all cases: log2 fold change, soluble protein after heating vs DMSO (PISA); higher = thermal stabilisation; K562 cells, 10 uM, 30 min; active = over 0.2 and 3.5 SD of the protein, either way, in both replicates (recomputed)
[1] = compound: C1COCCN1CCN2C3=CC=CC=C3N=C2NC(=O)C4=CC(=CC=C4)[N+](=O)[O-] [IRAK-1-4 Inhibitor I]
Summary of the method: (§1)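 Aliquots of K562 cells (2×10^6 cells/mL) treated with 10 μM compound for 30 min were heated for 3 min over 48°C-58°C. After pooling and extraction in PBS with 0.5% NP-40 at 4°C, soluble protein from a 21,000xg, 90 min spin was quantified by TMTpro 16plex LC-MS/MS with channel sums equalised. Thermal stability is expressed against control samples, from duplicates, as a log2 fold change.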

[2] = compound: C=CC(=O)N1CCC[C@@H](n2nc(-c3ccc(Oc4ccccc4)cc3)c3c(N)ncnc32)C1 [ibrutinib]
Summary of the method: as §1

[3] = compound: CC(=O)c1cnc2ccc(-c3cc(Cl)c(O)c(Cl)c3)nc2c1N[C@H]1CC[C@H](CN(C)C)CC1
Summary of the method: as §1

[4] = compound: CC(C)(O)CC(=O)NCCn1ccc2ncnc(Nc3ccc(Oc4cccc(C(F)(F)F)c4)c(Cl)c3)c21
Summary of the method: as §1

[5] = compound: CC(C)N(C[C@H]1O[C@@H](n2cnc3c(N)ncnc32)[C@H](O)[C@@H]1O)[C@H]1C[C@@H](CCc2nc3cc(C(C)(C)C)ccc3[nH]2)C1 [pinometostat]
Summary of the method: as §1

[6] = compound: CC1=C(C(CC(=O)N1)C2=CC=C(C=C2)C(F)(F)F)C(=O)NC3=C(C=C4C(=C3)C=NN4)F
Summary of the method: as §1

[7] = compound: CC1=C(C2=C(C=C1)C(=O)C3=CC=CC=C3N2CCCN)C
Summary of the method: as §1

[8] = compound: CC1=C(C=C(C=C1)NC(=O)C2=CC(=CC=C2)C(C)(C)C#N)NC3=CC4=C(C=C3)N=CN(C4=O)C
Summary of the method: as §1

[9] = compound: CC1=CC=C(C=C1)SC2=C3C=C(SC3=CN=C2)C(=O)N
Summary of the method: as §1

[10] = compound: CC1=NC(=CC=C1)C2=C(N=C(N2)C(C)(C)C)C3=CC4=NC=CN=C4C=C3
Summary of the method: as §1

[11] = compound: CCCCN(Cc1ccc(C(=O)NO)cc1)C(=O)Nc1ccccc1 [Nexturastat A]
Summary of the method: as §1

[12] = compound: CCCS(=O)(=O)Nc1ccc(F)c(C(=O)c2c[nH]c3ncc(-c4ccc(Cl)cc4)cc23)c1F [vemurafenib]
Summary of the method: as §1

[13] = compound: CCCS(=O)(=O)Nc1ccc(F)c(C(=O)c2c[nH]c3ncc(Cl)cc23)c1F
Summary of the method: as §1

[14] = compound: CCCc1cc(C)[nH]c(=O)c1CNC(=O)c1cc(-c2ccnc(N3CCN(C)CC3)c2)cc2c1cnn2C(C)C
Summary of the method: as §1

[15] = compound: CCN(CCCOc1ccc2c(Nc3cc(CC(=O)Nc4cccc(F)c4)[nH]n3)ncnc2c1)CCOP(=O)(O)O [barasertib]
Summary of the method: as §1

[16] = compound: CC(C)(C)Cn1c(N)nc2ccc(-c3[nH]c(C(C)(C)C)nc3-c3ccc(F)cc3)nc21 [ralimetinib]
Summary of the method: as §1

[17] = compound: CC(C)C[C@@H](C=O)NC(=O)[C@H](CC(C)C)NC(=O)[C@H](CC(C)C)NC(=O)OCc1ccccc1
Summary of the method: as §1

[18] = compound: CC1=C(C=C(C=C1)NC(=O)C2=CC(=CC=C2)N(C)C)NC(=O)C3=CC=C(C=C3)O
Summary of the method: as §1

[19] = compound: CC(C)C1=C2N=C(C=C(N2N=C1)NCC3=CC=CC=C3)NCCCCCCN
Summary of the method: as §1

[20] = compound: CCN(CC)Cc1ccc2cc(COC(=O)Nc3ccc(C(=O)NO)cc3)ccc2c1 [givinostat]
Summary of the method: as §1

Target | log2 fold change [1] | log2 fold change [2] | log2 fold change [3] | log2 fold change [4] | log2 fold change [5] | log2 fold change [6] | log2 fold change [7] | log2 fold change [8] | log2 fold change [9] | log2 fold change [10] | log2 fold change [11] | log2 fold change [12] | log2 fold change [13] | log2 fold change [14] | log2 fold change [15] | log2 fold change [16] | log2 fold change [17] | log2 fold change [18] | log2 fold change [19] | log2 fold change [20]
PACC1 (UniProt Q9H813) | inactive: 0.053 | inactive: -0.003 | inactive: -0.033 | inactive: -0.133 | inactive: 0.01 | inactive: 0.148 | inactive: 0.066 | inactive: -0.145 | inactive: 0.026 | inactive: -0.016 | inactive: 0.002 | inactive: 0.049 | inactive: -0.018 | inactive: -0.055 | inactive: 0.046 |  |  |  |  | 
PCGF5 (UniProt Q86SE9) | inactive: -0.005 | inactive: 0.089 |  | inactive: 0.156 | inactive: 0.098 |  |  | inactive: -0.103 |  | inactive: -0.21 | inactive: -0.129 |  |  |  | inactive: 0.063 | inactive: 0.016 | inactive: -0.171 | inactive: -0.102 |  | 
PCBP2 (UniProt F8VRH0) | inactive: 0.118 | inactive: 0.057 | inactive: -0.092 | inactive: -0.263 | inactive: 0.022 |  | inactive: -0.113 | inactive: 0.419 | inactive: 0.019 | inactive: 0.172 | inactive: 0.136 | inactive: -0.235 | inactive: 0.123 | inactive: -0.199 | inactive: -0.201 |  |  |  | inactive: 0.123 | inactive: 0.04
PARP1 (UniProt P09874) | inactive: -0.068 | inactive: -0.027 | inactive: -0.052 | inactive: 0.108 | inactive: -0.009 |  | active: 0.578 | inactive: 0.116 | inactive: 0.071 | inactive: 0.107 | inactive: -0.13 | inactive: 0.112 | inactive: 0.145 | active: 0.555 | inactive: 0.122 | inactive: 0.039 | inactive: 0.018 | inactive: -0.149 | inactive: -0.068 | inactive: 0.045
PARP16 isoform 3 (UniProt Q8N5Y8) | inactive: -0.036 | inactive: -0.13 | inactive: -0.003 | inactive: 0.032 | inactive: -0.097 |  | inactive: -0.027 | inactive: 0.066 | active: 0.298 | inactive: 0 | inactive: 0.022 | inactive: -0.06 | inactive: 0.132 | inactive: -0.016 | inactive: 0.032 |  |  |  | inactive: -0.012 | inactive: 0.04
PAGE2 (UniProt Q7Z2X7) | inactive: 0.072 | inactive: 0 | inactive: -0.13 | inactive: -0.171 | inactive: -0.006 | inactive: 0.049 | inactive: 0.232 | inactive: -0.054 | inactive: 0.014 | inactive: -0.025 | inactive: -0.003 | inactive: 0.175 | inactive: -0.02 | inactive: -0.011 | inactive: 0.128 |  |  |  | inactive: 0.091 | inactive: -0.061
PARL (UniProt Q9H300) | inactive: 0.019 | inactive: 0.007 | inactive: 0.003 | inactive: -0.003 | inactive: -0.006 |  | inactive: 0.017 | inactive: 0 | inactive: 0.02 | inactive: 0.002 | inactive: -0.098 | inactive: -0.014 | inactive: 0.057 | inactive: -0.036 | inactive: -0.022 | inactive: -0.022 | inactive: 0.005 | inactive: 0.025 | active: -0.233 | inactive: 0.068
